Data published in paper PMC12554172, “Systematic analysis of the RGS2 degron reveals characteristics of substrate recognition by the F-box protein FBXO44” (The Journal of Biological Chemistry, 2025).
Results are given in words; binding and its absence hold for the method and conditions named. Some entries that bind do so weakly or less than the wild type. Where a sequence is shown, tags or fusion partners need not be part of it.

Amino acid sequences for entries named in this document (tags omitted). A change or cut given only in a name is not applied to a line headed by its entry.
UniProt P41220: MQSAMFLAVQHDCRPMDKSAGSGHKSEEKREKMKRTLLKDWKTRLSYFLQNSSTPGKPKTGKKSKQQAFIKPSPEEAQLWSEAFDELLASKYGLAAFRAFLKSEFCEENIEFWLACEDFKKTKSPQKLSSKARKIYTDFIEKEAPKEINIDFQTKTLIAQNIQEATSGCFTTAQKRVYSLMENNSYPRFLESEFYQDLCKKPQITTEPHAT

How the values were obtained:
Test in all cases: peptide or protein array; custom PEPperPRINT peptide microarray (each position of RGS2^5–16 substituted by every other amino acid; C-terminal truncations); 2 μg/ml purified FLAG-FBXO44^FBA in staining buffer (PBS, 0.005% Tween, pH 7.4, 10% Rockland blocking buffer) overnight at 4 °C; anti-FLAG DyLight800; signal normalised to the original residue; both purified
[1] = biological target: T1, RGS2^5–16 peptide, Asp^12 to His (UniProt P41220)
T1 sequence (peptide): MFLAVQHHCRPM

[2] = biological target: T2, RGS2^5–16 peptide, Asp^12 to Gly (UniProt P41220)
T2 sequence (peptide): MFLAVQHGCRPM

[3] = biological target: T3, RGS2^5–16 peptide, Asp^12 to Glu (UniProt P41220)
T3 sequence (peptide): MFLAVQHECRPM

[4] = biological target: T4, RGS2^5–16 peptide R14A (UniProt P41220)
T4 sequence (peptide): MFLAVQHDCAPM

[5] = biological target: T5, RGS2^5–16 peptide, Met^5 to Asp (UniProt P41220)
T5 sequence (peptide): DFLAVQHDCRPM

[6] = biological target: T6, RGS2^5–16 peptide, Asp^12 to Lys (UniProt P41220)
T6 sequence (peptide): MFLAVQHKCRPM

[7] = biological target: T7, RGS2^5–16 peptide, Val^9 to Asp (UniProt P41220)
T7 sequence (peptide): MFLADQHDCRPM

[8] = biological target: T8, RGS2^5–16 peptide, Asp^12 to Ala (UniProt P41220)
T8 sequence (peptide): MFLAVQHACRPM

[9] = biological target: T9, RGS2^5–16 peptide H11R (UniProt P41220)
T9 sequence (peptide): MFLAVQRDCRPM

[10] = biological target: T10, RGS2^5–16 peptide, Asp^12 to Cys (UniProt P41220)
T10 sequence (peptide): MFLAVQHCCRPM

[11] = biological target: T11, RGS2^5–16 peptide, Ala^8 to Asp (UniProt P41220)
T11 sequence (peptide): MFLDVQHDCRPM

[12] = biological target: T12, RGS2^5–16 peptide, Asp^12 to Phe (UniProt P41220)
T12 sequence (peptide): MFLAVQHFCRPM

[13] = biological target: T13, RGS2^5–16 peptide, Asp^12 to Leu (UniProt P41220)
T13 sequence (peptide): MFLAVQHLCRPM

Measured: binding

B1: FLAG-tagged FBXO44 FBA domain (FBXO44^FBA) (domain or fragment, UniProt Q9H4M3-1 71-252)
chain: FYFLRSLHRNLLHNPCAEEGFEFWSLDVNGGDEWKVEDLSRDQRKEFPNDQVKKYFVTSYYTCLKSQVVDLKAEGYWEELMDTTRPDIEVKDWFAARPDCGSKYQLCVQLLSSAHAPLGTFQPDPATIQQKSDAKWREVSHTFSNYPPGVRYIWFQHGGVDTHYWAGWYGPRVTNSSITIGP
binds: [1] | [2] | [3] | [4] | [5] | [6] | [7] | [8] | [9] | [10] | [11] | [12] | [13]
